# These are yes or no findings as the source states them, for the method shown. In cells and extracts the contact can be indirect. These calls come from enrichment with a bait or labelling near it, and not all partners need be listed. Sequences can lack the tags named with a protein.
# Sequences of proteins named here, by UniProt entry; tags and fusion partners are left off. Residues count along the entry.
# UniProt P02545, residues 1-646: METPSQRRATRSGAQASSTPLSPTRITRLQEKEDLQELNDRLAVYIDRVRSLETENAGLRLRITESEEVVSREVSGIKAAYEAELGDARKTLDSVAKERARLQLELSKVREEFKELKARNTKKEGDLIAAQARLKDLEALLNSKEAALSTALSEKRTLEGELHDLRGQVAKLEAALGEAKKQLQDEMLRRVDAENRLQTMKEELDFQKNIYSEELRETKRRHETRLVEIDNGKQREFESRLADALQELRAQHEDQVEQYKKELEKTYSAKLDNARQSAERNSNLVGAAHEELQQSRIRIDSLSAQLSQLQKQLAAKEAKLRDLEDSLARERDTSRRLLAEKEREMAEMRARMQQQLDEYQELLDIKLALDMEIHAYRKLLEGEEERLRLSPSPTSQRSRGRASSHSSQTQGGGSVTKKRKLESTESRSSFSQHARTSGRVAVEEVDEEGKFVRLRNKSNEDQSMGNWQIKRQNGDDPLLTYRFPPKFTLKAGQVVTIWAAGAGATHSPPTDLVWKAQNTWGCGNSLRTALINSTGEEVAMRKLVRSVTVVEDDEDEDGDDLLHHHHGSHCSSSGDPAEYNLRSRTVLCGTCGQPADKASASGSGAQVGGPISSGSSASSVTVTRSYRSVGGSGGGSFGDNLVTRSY
# T1: recombinant purified His-tagged human BAF (H6BAF) dimers (human) (UniProt O75531)
# T1 sequence: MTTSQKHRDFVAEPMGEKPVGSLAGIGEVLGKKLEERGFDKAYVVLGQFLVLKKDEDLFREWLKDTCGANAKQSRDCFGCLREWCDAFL
# B1: Heterogeneous nuclear ribonucleoprotein L (hnRNP L) (protein, UniProt P14866 1-589)
# chain: MSRRLLPRAEKRRRRLEQRQQPDEQRRRSGAMVKMAAAGGGGGGGRYYGGGSEGGRAPKRLKTDNAGDQHGGGGGGGGGAGAAGGGGGGENYDDPHKTPASPVVHIRGLIDGVVEADLVEALQEFGPISYVVVMPKKRQALVEFEDVLGACNAVNYAADNQIYIAGHPAFVNYSTSQKISRPGDSDDSRSVNSVLLFTILNPIYSITTDVLYTICNPCGPVQRIVIFRKNGVQAMVEFDSVQSAQRAKASLNGADIYSGCCTLKIEYAKPTRLNVFKNDQDTWDYTNPNLSGQGDPGSNPNKRQRQPPLLGDHPAEYGGPHGGYHSHYHDEGYGPPPPHYEGRRMGPPVGGHRRGPSRYGPQYGHPPPPPPPPEYGPHADSPVLMVYGLDQSKMNCDRVFNVFCLYGNVEKVKFMKSKPGAAMVEMADGYAVDRAITHLNNNFMFGQKLNVCVSKQPAIMPGQSYGLEDGSCSYKDFSESRNNRFSTPEQAAKNRIQHPSNVLHFFNAPLEVTEENFFEICDELGVKRPSSVKVFSGKSERSSSGLLEWESKSDALETLGFLNHYQMKNPNGPYPYTLKLCFSTAQHAS
# Columns and labels:
# [1] = biological target: T1, recombinant purified His-tagged human BAF (H6BAF) dimers (human); assay: affinity purification with mass spectrometry; 30 µg H6BAF dimers on Ni-NTA beads, 500 µg pre-cleared HeLa nuclear lysate (benzonase-treated), 3 hrs 4°C; eluted with 0.3 M then 1 M NaCl; LC-MS/MS of eluates; Ni beads alone as control; only the target purified
# [2] = biological target: T1, recombinant purified His-tagged human BAF (H6BAF) dimers (human); assay: affinity purification with mass spectrometry; scaled up: 100 µg Ni-BAF beads, 5 mg HeLa nuclear lysate proteins; 0.3 M and 1 M NaCl eluates of BAF and control beads labelled with iTRAQ 4-plex reagents; enrichment against bead-only controls; only the target purified
Molecule,binding [1],binding [2]
Lamin A/C (from UniProt P02545 1-646),binds,binds
B1,,binds

# Source: article PMC2739719
